{
  "source": "patent US20260125334A1",
  "about": "“TREATMENT PROCESS FOR PFAS-CONTAINING COMPOUNDS” (priority 2023, published 2026)",
  "key": {"[1]": {"assay": "PFOA removal from low concentration aqueous standard solution by quaternary ammonium compound, LC-QTOF of centrate (Example 1)", "conditions": "quat added at 0.2% by weight, standard solution 641 ppt"}, "[2]": {"assay": "Bromine in solution after treatment, XRF, ion exchange mechanism (Example 8)"}, "[3]": {"assay": "PFOS removal from low concentration aqueous standard solution by quaternary ammonium compound, LC-QTOF of centrate (Example 1)", "conditions": "quat added at 0.2% by weight, standard solution 818 ppt"}, "[4]": {"assay": "PFAS removal from synthetic wastewater containing 1% AFFF, LC/QTOF-MS (Example 2)", "conditions": "100 μL of 5% quat solution in 10 mL of 1% AFFF"}, "[5]": {"assay": "PFAS removal from 1.25% AFFF synthetic wastewater, NMR of aqueous layer (Example 3)", "conditions": "1.25% AFFF solution; NMR detection limit 100 ppm PFAS"}},
  "data": [
    {"smiles": "CCCCCCCCCCCCCCCCCC[N+](C)(C)CCCCCCCCCCCCCCCCCC.[Br-]", "note": "[Dimethyldioctadecylammonium bromide, dimethyldioctadecylammonium bromide]", "values": [
      {"measurement": "PFOA concentration in the presence of dimethyl quaternary amine", "setting": "[1]", "value": 41, "unit": "ppt"},
      {"measurement": "Bromine in solution, blank (MilliQ water) after treatment", "setting": "[2]; 2 g quat in 100 mL MilliQ water", "value": "No significant increase in bromine"},
      {"measurement": "Bromine in solution, 1000 ppm PFOS sample after treatment", "setting": "[2]; 2 g quat in 100 mL of 1000 ppm PFOS", "value": "increase in bromine"},
      {"measurement": "PFOS concentration in the presence of dimethyl quaternary amine", "setting": "[3]", "value": "<5", "unit": "ppt"},
      {"measurement": "PFAS in AFFF contaminated water after treatment", "setting": "[4]", "value": "reduced the PFAS"},
      {"measurement": "AFFF detection on NMR spectra after treatment", "setting": "[5]", "value": "not detected"}
    ]},
    {"smiles": "CCCCCCCCCCCCCC[N+](C)(C)CCCCCCCCCCCCCC.[Br-]", "note": "[Dimethyldimyristylammonium bromide, dimethyldimyristylammonium bromide]", "values": [
      {"measurement": "PFOA concentration in the presence of dimethyl quaternary amine", "setting": "[1]", "value": 149, "unit": "ppt"},
      {"measurement": "PFOS concentration in the presence of dimethyl quaternary amine", "setting": "[3]", "value": 261, "unit": "ppt"},
      {"measurement": "PFAS in AFFF contaminated water after treatment", "setting": "[4]", "value": "reduced the PFAS"},
      {"measurement": "AFFF detection on NMR spectra after treatment", "setting": "[5]", "value": "not detected"}
    ]},
    {"smiles": "CCCCCCCCCC[N+](C)(C)CCCCCCCCCC.[Cl-]", "note": "[Dimethyldidecylammonium chloride]", "values": [
      {"measurement": "PFAS in AFFF contaminated water after treatment", "setting": "[4]", "value": "reduced the PFAS"},
      {"measurement": "AFFF detection on NMR spectra after treatment", "setting": "[5]", "value": "not detected"}
    ]},
    {"smiles": "CCCCCCCCCC[N+](C)(C)CCCCCCCCCC.[Br-]", "note": "[Dimethyldidecylammonium bromide, dimethyldidecylammonium bromide]", "values": [
      {"measurement": "PFOA concentration in the presence of dimethyl quaternary amine", "setting": "[1]", "value": 628, "unit": "ppt"},
      {"measurement": "PFOS concentration in the presence of dimethyl quaternary amine", "setting": "[3]", "value": 615, "unit": "ppt"}
    ]}
  ]
}
